By UniProt entry, the sequences of proteins in these tests, tags left out.
UniProt Q93009: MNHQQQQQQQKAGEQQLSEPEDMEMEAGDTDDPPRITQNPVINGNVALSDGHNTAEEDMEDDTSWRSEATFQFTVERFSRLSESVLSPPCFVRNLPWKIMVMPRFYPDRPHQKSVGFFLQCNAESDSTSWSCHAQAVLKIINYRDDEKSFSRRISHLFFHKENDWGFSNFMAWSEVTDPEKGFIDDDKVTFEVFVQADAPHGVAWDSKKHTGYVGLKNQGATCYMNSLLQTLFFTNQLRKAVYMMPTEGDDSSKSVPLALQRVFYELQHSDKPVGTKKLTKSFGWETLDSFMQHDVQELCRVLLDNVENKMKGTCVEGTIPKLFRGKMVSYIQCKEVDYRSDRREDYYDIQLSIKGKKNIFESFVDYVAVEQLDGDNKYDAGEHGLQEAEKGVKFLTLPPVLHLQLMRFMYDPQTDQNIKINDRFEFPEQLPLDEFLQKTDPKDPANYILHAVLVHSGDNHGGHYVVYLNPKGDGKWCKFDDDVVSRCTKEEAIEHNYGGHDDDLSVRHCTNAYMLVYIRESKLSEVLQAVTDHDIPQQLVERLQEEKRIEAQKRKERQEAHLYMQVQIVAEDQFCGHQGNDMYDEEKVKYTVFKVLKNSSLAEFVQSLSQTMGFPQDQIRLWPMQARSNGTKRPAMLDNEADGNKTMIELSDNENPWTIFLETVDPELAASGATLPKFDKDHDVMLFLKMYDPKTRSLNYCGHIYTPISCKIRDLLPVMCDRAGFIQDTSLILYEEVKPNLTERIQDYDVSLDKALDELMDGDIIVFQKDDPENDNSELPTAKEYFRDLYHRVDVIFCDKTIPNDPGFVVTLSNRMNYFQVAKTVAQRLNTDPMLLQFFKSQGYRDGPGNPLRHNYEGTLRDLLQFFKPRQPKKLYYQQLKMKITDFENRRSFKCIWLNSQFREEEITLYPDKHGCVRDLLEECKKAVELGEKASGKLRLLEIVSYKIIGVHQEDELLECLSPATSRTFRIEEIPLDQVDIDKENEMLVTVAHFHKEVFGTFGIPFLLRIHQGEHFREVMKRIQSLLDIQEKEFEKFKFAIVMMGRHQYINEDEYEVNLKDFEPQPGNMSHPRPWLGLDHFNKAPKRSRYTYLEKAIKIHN

According to PMC8405615:

T1: SFB-ZEB1, triple-epitope (S-protein, FLAG tag, and streptavidin-binding peptide)-tagged zinc finger E-box-binding homeobox 1 (UniProt P37275)
T1 sequence: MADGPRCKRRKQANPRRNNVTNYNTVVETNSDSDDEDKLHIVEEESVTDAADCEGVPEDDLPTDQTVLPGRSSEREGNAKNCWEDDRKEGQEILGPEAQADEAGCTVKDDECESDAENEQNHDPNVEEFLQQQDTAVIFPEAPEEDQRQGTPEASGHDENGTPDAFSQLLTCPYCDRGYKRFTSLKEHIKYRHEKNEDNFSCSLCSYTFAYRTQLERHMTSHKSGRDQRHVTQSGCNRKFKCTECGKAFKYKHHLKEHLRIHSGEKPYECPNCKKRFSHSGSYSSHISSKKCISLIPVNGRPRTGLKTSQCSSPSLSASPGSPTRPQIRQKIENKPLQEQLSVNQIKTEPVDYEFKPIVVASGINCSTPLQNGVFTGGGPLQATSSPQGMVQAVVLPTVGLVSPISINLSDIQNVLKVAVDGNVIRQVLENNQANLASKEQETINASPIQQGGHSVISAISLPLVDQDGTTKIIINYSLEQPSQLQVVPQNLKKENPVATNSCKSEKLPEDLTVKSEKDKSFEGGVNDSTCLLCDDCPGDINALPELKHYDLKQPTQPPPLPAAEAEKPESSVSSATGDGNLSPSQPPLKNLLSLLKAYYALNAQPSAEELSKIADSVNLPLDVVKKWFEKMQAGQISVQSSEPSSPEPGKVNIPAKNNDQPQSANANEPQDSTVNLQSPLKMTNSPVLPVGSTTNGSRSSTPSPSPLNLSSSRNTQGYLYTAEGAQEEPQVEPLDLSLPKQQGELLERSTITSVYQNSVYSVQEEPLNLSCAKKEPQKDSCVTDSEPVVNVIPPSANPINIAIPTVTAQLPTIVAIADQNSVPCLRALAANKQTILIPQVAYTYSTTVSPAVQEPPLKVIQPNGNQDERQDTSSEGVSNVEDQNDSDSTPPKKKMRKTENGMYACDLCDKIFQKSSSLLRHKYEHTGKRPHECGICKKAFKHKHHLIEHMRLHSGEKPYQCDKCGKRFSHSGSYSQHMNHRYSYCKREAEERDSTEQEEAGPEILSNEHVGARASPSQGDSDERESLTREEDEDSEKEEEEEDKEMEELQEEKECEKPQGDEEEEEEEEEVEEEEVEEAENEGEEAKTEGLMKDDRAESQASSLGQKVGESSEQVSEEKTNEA

B1: CHFR (endogenous, found with SFB-ZEB1 by mass spectrometry) (enzyme, UniProt Q96EP1 1-664)
chain: MERPEEGKQSPPPQPWGRLLRLGAEEGEPHVLLRKREWTIGRRRGCDLSFPSNKLVSGDHCRIVVDEKSGQVTLEDTSTSGTVINKLKVVKKQTCPLQTGDVIYLVYRKNEPEHNVAYLYESLSEKQGMTQESFEANKENVFHGTKDTSGAGAGRGADPRVPPSSPATQVCFEEPQPSTSTSDLFPTASASSTEPSPAGRERSSSCGSGGGGISPKGSGPSVASDEVSSFASALPDRKTASFSSLEPQDQEDLEPVKKKMRGDGDLDLNGQLLVAQPRRNAQTVHEDVRAAAGKPDKMEETLTCIICQDLLHDCVSLQPCMHTFCAACYSGWMERSSLCPTCRCPVERICKNHILNNLVEAYLIQHPDKSRSEEDVQSMDARNKITQDMLQPKVRRSFSDEEGSSEDLLELSDVDSESSDISQPYVVCRQCPEYRRQAAQPPHCPAPEGEPGAPQALGDAPSTSVSLTTAVQDYVCPLQGSHALCTCCFQPMPDRRAEREQDPRVAPQQCAVCLQPFCHLYWGCTRTGCYGCLAPFCELNLGDKCLDGVLNNNSYESDILKNYLATRGLTWKNMLTESLVALQRGVFLLSDYRVTGDTVLCYCCGLRSFRELTYQYRQNIPASELPVAVTSRPDCYWGRNCRTQVKAHHAMKFNHICEQTRFKN

Target: T1, SFB-ZEB1, triple-epitope (S-protein, FLAG tag, and streptavidin-binding peptide)-tagged zinc finger E-box-binding homeobox 1
Assay: affinity purification with mass spectrometry; 293T cells transfected with SFB-ZEB1, 10 µM MG132 for 6 h before collection; tandem-affinity purification on streptavidin Sepharose beads and S-protein agarose beads, then mass spectrometry

binding	Molecule
binds	CTBP2 (from UniProt P56545 1-445)
binds	USP7 (from UniProt Q93009 1-1102) (enzyme)
binds	B1

These are yes or no findings as the source states them, for the method shown. Binding seen in cells or lysates may run through a third protein. These calls come from enrichment with a bait or labelling near it, and not all partners need be listed. Tags and fused reporters may be left off the sequences shown.
